Not every detail of the peptide structures is certain; ends, links or a residue may be inferred. Where no end group is shown, it is not given here.
How the values were obtained:
[1] = tested on: popliteal lymph node cells; assay: Lymph node proliferation assay (footpad injection of splenocytes); assay type: in vivo, rat; details: treated within 24 hours of footpad injection; compared with approximately 3:1
Experimental: ACI or PVG rats (200 g) were injected intravenously with peptides dissolved in saline on day 0. On the indicated days thereafter, the left rear footpads of the rats were injected with 5×10^6 splenocytes from a syngeneic donor and the right rear footpads with 5×10^6 splenocytes from an allogeneic Lew donor (Moeller et al. Transplantation (1993) 55:650). See also Twist and Barnes Transplantation (1973) 15:182; Fanslow et al. Science (1990) 248:739). Seven days after the footpad injection, the animals were sacrificed and the popliteal lymph nodes removed. A single cell suspension was prepared, and the cell number determined using a hemocytometer.
PVG or ACI rats (3 per group) were given a single intravenous injection of 2 mg of each of the four peptides or saline. On the day of treatment, or on days 1, 7, or 10 after treatment, the right footpads were injected with 5×10^6 syngeneic splenocytes while the left footpads were injected with 5×10^6 allogeneic Lew splenocytes. Seven days after the footpad injections, the draining lymph nodes were removed, a single cell suspension was prepared, and the cell number determined.

[2] = tested on: cardiac allograft; assay: Heterotopic cardiac allograft survival, Lew donor to ACI recipient; assay type: in vivo, rat; details: peptide alone, 2–5 doses in the two weeks before or 4 days following transplant; controls 9–12 days
Description: Vascularized cardiac allografts were heterotypically transplanted into the abdomen of recipient rats using a modification of the technique of Ono and Lindsay (Ono and Lindsey J. Thorac. Cardiovasc. Surg. (1969) 57:225). Abdominal allografts were palpated on a daily basis to assess graft function, and rejection was deemed complete when palpable ventricular contractions ceased.
Cyclosporin A (CsA, Sandoz Pharmaceuticals Corporation, Base, Switzerland) dissolved in olive oil was given orally through a gavage tube at the indicated dose. Peptides were dissolved in water or saline and given intravenously or by gavage as indicated.
Since the B7.75-84 and B2702.75-84 peptides blocked cellular immunity in vivo, we examined their effects on allograft survival in rats. ACI (RT1^a) recipients were given abdominal heterotopic heart allografts from Lew donors (Moeller et al. 1993, supra; Ono and Lindsey. 1969, supra). Graft function was monitored by daily abdominal palpation, and rejection was scored as complete when the palpable ventricular contractions ceased.

## RESLRNLRGY [B7.75–84]
[1]
  ratio of cells recovered from side injected with allogeneic versus syngeneic cells: A similar ratio
[2]
  allograft survival: 7–13 days

Source: patent US7011834B1, “Immunomodulating dimers” (The Board of Trustees of Leland Stanford Junior University, priority 1987, dated 2006)
